We go through three molecules from publication PMC6337871.

By UniProt entry, the sequences of proteins in these tests, tags left out.
UniProt O95817: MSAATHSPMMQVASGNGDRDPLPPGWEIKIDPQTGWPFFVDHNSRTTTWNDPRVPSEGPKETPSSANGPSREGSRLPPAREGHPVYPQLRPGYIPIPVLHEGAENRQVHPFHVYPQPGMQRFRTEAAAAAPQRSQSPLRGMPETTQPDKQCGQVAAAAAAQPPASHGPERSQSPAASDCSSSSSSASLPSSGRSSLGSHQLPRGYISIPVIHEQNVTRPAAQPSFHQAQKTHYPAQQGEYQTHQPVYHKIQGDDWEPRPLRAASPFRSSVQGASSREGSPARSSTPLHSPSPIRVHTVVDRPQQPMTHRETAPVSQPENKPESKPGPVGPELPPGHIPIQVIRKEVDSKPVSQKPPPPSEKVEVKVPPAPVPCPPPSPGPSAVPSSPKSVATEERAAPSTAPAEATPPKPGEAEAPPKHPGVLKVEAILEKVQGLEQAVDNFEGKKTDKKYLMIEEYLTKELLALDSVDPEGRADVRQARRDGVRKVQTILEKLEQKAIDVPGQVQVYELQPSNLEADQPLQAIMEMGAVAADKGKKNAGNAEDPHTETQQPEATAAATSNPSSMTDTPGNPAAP
UniProt P11142: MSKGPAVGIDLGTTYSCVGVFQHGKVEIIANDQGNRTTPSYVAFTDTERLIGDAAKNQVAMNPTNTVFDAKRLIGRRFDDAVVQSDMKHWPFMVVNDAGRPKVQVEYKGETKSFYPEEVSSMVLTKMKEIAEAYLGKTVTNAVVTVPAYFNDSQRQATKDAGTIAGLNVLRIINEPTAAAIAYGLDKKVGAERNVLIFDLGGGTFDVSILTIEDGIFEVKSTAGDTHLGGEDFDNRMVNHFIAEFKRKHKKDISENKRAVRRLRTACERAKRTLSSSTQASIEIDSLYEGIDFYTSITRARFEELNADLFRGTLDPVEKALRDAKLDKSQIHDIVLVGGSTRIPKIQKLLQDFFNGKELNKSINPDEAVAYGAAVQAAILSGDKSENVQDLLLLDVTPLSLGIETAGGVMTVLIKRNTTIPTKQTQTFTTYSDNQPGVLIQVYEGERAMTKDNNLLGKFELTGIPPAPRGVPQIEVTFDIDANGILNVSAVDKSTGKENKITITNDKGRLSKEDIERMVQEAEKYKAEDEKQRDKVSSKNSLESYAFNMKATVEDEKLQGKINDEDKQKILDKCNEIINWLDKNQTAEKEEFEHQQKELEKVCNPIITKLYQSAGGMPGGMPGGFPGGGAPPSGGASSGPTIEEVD

These are yes or no findings as the source states them, for the method shown. In cells and extracts the contact can be indirect. Some binding calls cover weakened binding; strength is not graded here. For part of these data: Tags and fused reporters may be left off the sequences shown.

In assay [1] the target is Bcl-2-associated athanogene 3 (BAG3) (human (cDNA from HEK293 cells; U251 is a human cell line)) (UniProt O95817). Kind of assay: co-IP; BAG3 immunoprecipitates from U251 cell lines stably overexpressing CRYAB-Flag or empty vector, RIPA buffer; blots for HSC70, HSPB8 and CRYAB (Fig. 3d).
Assay [2] shares this target. Kind of assay: co-IP; U251 cell lysates, RIPA buffer; which protein was precipitated is not told in the text (Fig. 3c).
Assay [3] has the same target. As to the kind of experiment: co-IP; lysates of U251 cells stably overexpressing CRYAB-Flag; RIPA buffer (50 mM Tris pH 7.4, 150 mM NaCl, 1% NP-40, 0.5% sodium deoxycholate, 0.1% SDS); precipitating antibody not told in the text (Fig. 3a).

On to HSC70 (from UniProt P11142 1-646), for which the binding result in assay [1] and in assay [2] was “binds” each time.

B1: αB-crystallin (CRYAB)-Flag (protein, UniProt P02511 1-175)
chain: MDIAIHHPWIRRPFFPFHSPSRLFDQFFGEHLLESDLFPTSTSLSPFYLRPPSFLRAPSWFDTGLSEMRLEKDRFSVNLDVKHFSPEELKVKVLGDVIEVHGKHEERQDEHGFISREFHRKYRIPADVDPLTITSSLSSDGVLTVNGPRKQVSGPERTIPITREEKPAVTAAPKK
As for B1, the binding entry in assay [1] and in assay [3] was “binds” throughout.

B2: HSPB8 (protein, UniProt Q9UJY1 1-196)
chain: MADGQMPFSCHYPSRLRRDPFRDSPLSSRLLDDGFGMDPFPDDLTASWPDWALPRLSSAWPGTLRSGMVPRGPTATARFGVPAEGRTPPPFPGEPWKVCVNVHSFKPEELMVKTKDGYVEVSGKHEEKQQEGGIVSKNFTKKIQLPAEVDPVTVFASLSPEGLLIIEAPQVPPYSTFGESSFNNELPQDSQEVTCT
For B2, the binding entry in assay [1] and in assay [2] was “binds” throughout.
